PubChem BioAssay AID1224827 – NIAID – 2016
Assay: 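Confirm genes whose knock-down changes LPS-driven TNF promoter activity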 (follow-up of hits). Cells: RAW264.7 G9 mouse macrophage reporter clone. Reagent: single siRNA against mouse genes, 100 nM siRNA. Duration: siRNA for 2 days, then LPS about 16 h. Treatment: bacterial lipopolysaccharide (LPS), 10 ng/ml, cells fixed after overnight (about 16 h) stimulation. Measured: 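Imaged nuclear TNF reporter intensity, background removed, scaled per plate and to non-targeting control wells, as z-scores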. Scale: TNF reporter z-score, mean: higher = stronger Tnf promoter reporter signal. Hit rule: 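Active siRNA: replicate-mean z-score of 2 or more, or -2 or less; no calls for control wells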.
Shown is a random part of about 3,800 deposited reagents. Of all reagents, about 2,200 (57%) were called active. 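Active means a strong reporter change in either direction; calls are per siRNA, not per gene; qiagen siRNAs gave weaker effects.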 The numbers tell different reagents against one gene apart. Further read-outs or replicates are left out here.

How did the screen score Grpel2 (GeneID 17714) #1?
TNF reporter z-score, mean: 4.67; call: active

For Grpel2 (GeneID 17714) #2, what does the deposit list?
TNF reporter z-score, mean: -2.6; call: active

For Grpel2 (GeneID 17714) #3, what does the deposit list?
TNF reporter z-score, mean: -2.74; call: active

For Grpel2 (GeneID 17714) #4, what does the deposit list?
TNF reporter z-score, mean: 4.86; call: active

What is on record for Grpel2 (GeneID 17714) #5?
TNF reporter z-score, mean: 1.37; call: inactive

Which result is listed for Grpel2 (GeneID 17714) #6?
TNF reporter z-score, mean: 1.15; call: inactive

For Lrrc19 (GeneID 100061) #1, what was measured?
TNF reporter z-score, mean: -2.62; call: active

For Lrrc19 (GeneID 100061) #2, what does the deposit list?
TNF reporter z-score, mean: -2.63; call: active

What is on record for Lrrc19 (GeneID 100061) #3?
TNF reporter z-score, mean: -3.24; call: active

With Senp3 (GeneID 80886) #1, how do the results read?
TNF reporter z-score, mean: -1.23; call: inactive

For Senp3 (GeneID 80886) #2, how do the results read?
TNF reporter z-score, mean: -2.71; call: active

With Senp3 (GeneID 80886) #3, what does the deposit list?
TNF reporter z-score, mean: -3.75; call: active

With Senp3 (GeneID 80886) #4, what was measured?
TNF reporter z-score, mean: 1.7; call: inactive

What is on record for Senp3 (GeneID 80886) #5?
TNF reporter z-score, mean: 0.9; call: inactive

What is on record for Senp3 (GeneID 80886) #6?
TNF reporter z-score, mean: -1.78; call: inactive

How did the screen score Cabp7 (GeneID 192650) #1?
TNF reporter z-score, mean: 6.12; call: active

For Cabp7 (GeneID 192650) #2, what does the deposit list?
TNF reporter z-score, mean: -4.04; call: active

How did the screen score Cabp7 (GeneID 192650) #3?
TNF reporter z-score, mean: -4.48; call: active

For Cabp7 (GeneID 192650) #4, what does the deposit list?
TNF reporter z-score, mean: 1.37; call: inactive

For Cabp7 (GeneID 192650) #5, what was measured?
TNF reporter z-score, mean: 1.01; call: inactive

Which result is listed for Cabp7 (GeneID 192650) #6?
TNF reporter z-score, mean: -3.49; call: active

For Fbh1 (GeneID 50755) #1, how do the results read?
TNF reporter z-score, mean: -2.86; call: active

For Fbh1 (GeneID 50755) #2, what does the deposit list?
TNF reporter z-score, mean: -3.4; call: active

How did the screen score Fbh1 (GeneID 50755) #3?
TNF reporter z-score, mean: -4.59; call: active

What is on record for Fbh1 (GeneID 50755) #4?
TNF reporter z-score, mean: 2.64; call: active

With Fbh1 (GeneID 50755) #5, what was measured?
TNF reporter z-score, mean: 1.4; call: inactive

For Fbh1 (GeneID 50755) #6, what was measured?
TNF reporter z-score, mean: 0.507; call: inactive

With Mettl18 (GeneID 69962) #1, what does the deposit list?
TNF reporter z-score, mean: -3.99; call: active

For Mettl18 (GeneID 69962) #2, what was measured?
TNF reporter z-score, mean: -4.6; call: active

For Mettl18 (GeneID 69962) #3, what was measured?
TNF reporter z-score, mean: -4.8; call: active

For Mettl18 (GeneID 69962) #4, what does the deposit list?
TNF reporter z-score, mean: 3.37; call: active

What is on record for Mettl18 (GeneID 69962) #5?
TNF reporter z-score, mean: 0.209; call: inactive

With Mettl18 (GeneID 69962) #6, what was measured?
TNF reporter z-score, mean: -0.994; call: inactive

Reprinted from the entries so far, 3 entries:
Mettl18 (GeneID 69962) #1 | TNF reporter z-score, mean: -3.99; call: active
Mettl18 (GeneID 69962) #2 | TNF reporter z-score, mean: -4.6; call: active
Mettl18 (GeneID 69962) #3 | TNF reporter z-score, mean: -4.8; call: active
